Measured values taken from patent publication US20050064533A1.
No constants are given. Whether binding was seen depends on the method and setting. Binding seen in cells or lysates may run through a third protein. Some results given as binding are weak or reduced against the parent protein; the word gives no strength.

Amino acid sequences for entries named in this document (tags omitted). A change or cut given only in a name is not applied to a line headed by its entry. Chains listed by the source or under a name are the forms on record and can include a tag or linker. Residues count along the entry.
C-terminal 100 amino acids of mouse HIF-2a (775-874), wild type, with N-terminal thioredoxin/6-histidine tag (P97481, residues 775-874): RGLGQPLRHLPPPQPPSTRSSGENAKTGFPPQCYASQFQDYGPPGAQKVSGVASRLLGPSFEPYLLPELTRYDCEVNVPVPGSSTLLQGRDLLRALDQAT
C-terminal 100 amino acids of mouse HIF-2a (775-874), mutant N851A, with N-terminal thioredoxin/6-histidine tag (P97481, form named): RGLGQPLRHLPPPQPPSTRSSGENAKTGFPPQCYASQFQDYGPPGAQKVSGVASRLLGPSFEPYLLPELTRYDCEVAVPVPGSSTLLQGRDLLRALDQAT
UniProt Q9NWT6: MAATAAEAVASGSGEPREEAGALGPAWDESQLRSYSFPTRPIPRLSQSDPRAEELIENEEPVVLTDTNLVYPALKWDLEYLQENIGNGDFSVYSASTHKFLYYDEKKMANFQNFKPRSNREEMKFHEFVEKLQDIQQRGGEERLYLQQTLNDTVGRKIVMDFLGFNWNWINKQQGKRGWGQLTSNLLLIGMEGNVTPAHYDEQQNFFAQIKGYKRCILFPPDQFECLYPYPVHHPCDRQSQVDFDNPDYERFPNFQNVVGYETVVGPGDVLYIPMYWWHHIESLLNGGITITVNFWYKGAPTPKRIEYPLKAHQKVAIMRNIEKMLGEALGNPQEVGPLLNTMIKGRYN

Experiments:
[1] = biological target: C-terminal 100 amino acids of mouse HIF-2a (775-874), mutant N851A, with N-terminal thioredoxin/6-histidine tag (mouse) (UniProt P97481); experiment: pulldown of 35S-labelled CAD N851A on amylose resin with MBP-HNH, autoradiography
[2] = biological target: C-terminal 100 amino acids of mouse HIF-2a (775-874), wild type, with N-terminal thioredoxin/6-histidine tag (mouse) (UniProt P97481); experiment: pulldown
[3] = biological target: C-terminal 100 amino acids of mouse HIF-2a (775-874), wild type, with N-terminal thioredoxin/6-histidine tag (mouse) (UniProt P97481); experiment: pulldown of 35S-labelled CAD on amylose resin with MBP-HNH, autoradiography
[4] = biological target: C-terminal 100 amino acids of mouse HIF-2a (775-874), wild type, with N-terminal thioredoxin/6-histidine tag (mouse) (UniProt P97481); experiment: pulldown (FIG. 8)

binding [1]: binds
binding [2]: binds
binding [3]: binds
binding [4]: binds
Substance: MBP (maltose binding protein) fused to wild type HIF Asparagine Hydroxylase (HNH) (from UniProt Q9NWT6 1-349) (enzyme)
